The values below come from paper PMC7895558, “Antiprotozoal Compounds from Urolepis hecatantha (Asteraceae)” (Evidence-based Complementary and Alternative Medicine : eCAM, 2021).

Some compounds share one wording; it may come from a single statement.

This data set has as its system Trypanosoma cruzi epimastigotes (Tulahuen 2 strain). In words: in vitro anti-Trypanosoma cruzi activity (epimastigote growth, absorbance 600 nm). To be noted: macrophage CC50 versus T. cruzi epimastigote IC50. It is filed as cell-based. The protocol: For the anti-Trypanosoma and anti-Leishmania activity assays, we followed the methods described by Aguilera et al., 2019 [15].
For the in vitro anti-Trypanosoma cruzi activity, epimastigotes of the Tulahuen 2 strain (genotype TcVI) grown in an axenic medium (BHI-Tryptose) were used. Cells from a 5–7-day-old culture were inoculated in a fresh culture medium to give an initial concentration of 10^6 cells/mL. The absorbance at 600 nm of the cells in culture was measured every day. On day five, the medium was inoculated with different doses of the compounds (25–0.05 µM) from a stock solution in dimethylsulfoxide (DMSO) (DMSO concentration in the culture medium never exceeded 0.4%). Control parasites were cultivated in medium with 0.4% DMSO v/v. Benznidazole was used as a positive control. At five days, the absorbance of the culture was measured and compared to the control and the IC50 values were calculated for each compound using OriginLab 8.5® sigmoidal regression. Each experiment was done in duplicate, and each concentration was tested in triplicate.
With `C=C(C)c1cc2cc(C(C)=O)c(O)cc2o1` [compound 1, euparin], the “selectivity index (SI) on T. cruzi” value is on record as “did not display selectivity”.

Turning to `C=C1C(=O)O[C@@H]2/C=C(\C)[C@@H](O)C/C=C(\C)C[C@@H](OC(=O)/C(=C/CO)COC(C)=O)[C@@H]12` [compound 3, santhemoidin C], the “selectivity index (SI) on T. cruzi” value is listed as “did not display selectivity”.

`COc1cc(-c2oc3cc(O)c(OC)c(O)c3c(=O)c2OC)ccc1O` [compound 2, jaceidin]: the “selectivity index (SI) on T. cruzi” value is listed as “did not display selectivity”.
